Measured data: PubChem BioAssay AID686943 (Drosophila RNAi Screening Center, 2013)

Test: 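Knockdowns that increase or decrease active ERK after insulin receptor stimulation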 (primary screen)
Cell system: Drosophila S2R+ haemocyte-like cells expressing YFP-tagged ERK (Rolled)
Knock-down reagent: long dsRNA against Drosophila genes
Conditions: insulin stimulation versus unstimulated cells; dose and duration not given
Read-out: 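Per-plate z-scores of phospho-ERK immunostaining normalised to YFP-tagged ERK, measured with and without insulin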
Direction: replicate 1, z-score of dpERK with insulin and replicate 2, z-score of dpERK with insulin: higher = more active ERK per ERK-YFP after insulin
The deposit covers about 23,000 reagents; below is a random part of those with a known target gene and a result. 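Extra replicates exist only for a retested subset of genes; insulin dose and duration not given; both raised and lowered dpERK matter.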 The numbers tell different reagents against one gene apart. Further read-outs or replicates are left out here. Not stated in the record: the amount of reagent, the time to read-out.

fz | replicate 1, z-score of dpERK with insulin = 0.11; replicate 2, z-score of dpERK with insulin = 0
r2d2 | replicate 1, z-score of dpERK with insulin = 0.59; replicate 2, z-score of dpERK with insulin = 0.25
CG8483 | replicate 1, z-score of dpERK with insulin = 0; replicate 2, z-score of dpERK with insulin = -0.01
Srg2 | replicate 1, z-score of dpERK with insulin = 0.16; replicate 2, z-score of dpERK with insulin = 0.15
CG13926 | replicate 1, z-score of dpERK with insulin = -0.18; replicate 2, z-score of dpERK with insulin = -0.28
CG3513 | replicate 1, z-score of dpERK with insulin = 0.32; replicate 2, z-score of dpERK with insulin = 0.52
Grd | replicate 1, z-score of dpERK with insulin = 0.43; replicate 2, z-score of dpERK with insulin = 0.46
CG7220 #1 | replicate 1, z-score of dpERK with insulin = -0.12; replicate 2, z-score of dpERK with insulin = 0.64
CG7220 #2 | replicate 1, z-score of dpERK with insulin = -0.19; replicate 2, z-score of dpERK with insulin = -0.54
Nepl6 | replicate 1, z-score of dpERK with insulin = 0.38; replicate 2, z-score of dpERK with insulin = -0.37
AstC | replicate 1, z-score of dpERK with insulin = 0.52; replicate 2, z-score of dpERK with insulin = 0.17
Ugt35E2 | replicate 1, z-score of dpERK with insulin = 0.39; replicate 2, z-score of dpERK with insulin = 0.1

Already shown: an excerpt of the list.
Grd | replicate 1, z-score of dpERK with insulin = 0.43; replicate 2, z-score of dpERK with insulin = 0.46
CG7220 #1 | replicate 1, z-score of dpERK with insulin = -0.12; replicate 2, z-score of dpERK with insulin = 0.64
